{
  "source": "patent US20090286799A1",
  "about": "“METHODS FOR THE TREATMENT OF BRAIN EDEMA” (priority 2008, published 2009)",
  "key": {"[1]": {"test_system": "Middle Cerebral Artery Occlusion (MCAo) rats", "test": "Middle cerebral artery occlusion (MCAo) rat model: infarct volume, edema volume, premature mortality", "format": "in vivo, male Sprague-Dawley rats", "details": "2-hour MCAo rats", "protocol": "For Middle Cerebral Artery Occlusion (MCAo), male Sprague-Dawley rats (270 to 330 g) were anesthetized with gaseous isoflurane. With aseptic surgical techniques, a laser-Doppler probe was placed on the right temporal-lateral portion of the skull over a region of the cortex which is supplied by the middle cerebral artery to record cerebral blood flow (CBF). CBF was recorded before and after arterial occlusion. The bifurcation of the right external common carotid 8 artery (ECA) and internal common carotid artery (ICA) was surgically exposed. A 4-0 monofilament suture treated with a silicone coating to enlarge the tip to better achieve an arterial block was placed into the ECA stump, and advanced up the ICA approximately 20 mm until a drop in CBF of approximately 75% or greater was measured by laser Doppler flowmetry (PeriFlux PF5010, Perimed). The duration of the ischemia was 120 minutes. […]\nAfter 22 hours of treatment, the animals were sacrificed by CO2 asphyxiation, and their brains sectioned at 2 mm intervals. […] Brain areas were traced and measured using a computerized image analysis system (SimplePCI Version 4.0.0, Compix Inc) to determine infarct volume (in cubic millimeters, mm^3), whereby unstained areas were defined as ischemic lesions of infarcted tissue. […]"}, "[2]": {"test_system": "rat cortical and striatal neurons", "test": "Calcium-induced neuronal cell death (LDH in culture medium)", "format": "cell-based", "details": "2 μM, co-treated with different concentrations of CaCl2 for 10 days"}, "[3]": {"test_system": "rat cortical and striatal neurons", "test": "Glutamate-induced calcium influx (Calcium Green-1 fluorescence)", "format": "cell-based", "details": "20 μM glutamate, 30 min; 2 μM per results sentence (method: 5 μM)"}},
  "note": "At least one compound was matched to its structure with a doubt left.",
  "data": [
    {"smiles": "NC(=S)N/N=C/c1ncccc1N", "note": "[PAN-811, 3-aminopyridine-2-carboxaldehyde thiosemicarbazone]", "values": [
      {"measurement": "infarct volume", "setting": "[1]; i.v. at reperfusion, 0.5, 1, 2 and 5 mg/kg, measured after 22 hours", "result": "dose-dependent reduction of infarct volume"},
      {"measurement": "edema volume (trend over dose levels)", "setting": "[1]; i.v. at reperfusion, different dose levels, 22 hours later", "result": "trend in reduction of edema volume"},
      {"measurement": "calcium-induced LDH elevation", "setting": "[2]", "result": "reversed calcium-induced LDH elevation"},
      {"measurement": "glutamate-induced calcium influx", "setting": "[3]", "result": "suppressed glutamate-induced calcium influx"}
    ]}
  ]
}
